The other results are listed elsewhere or left out. The data scatter; read single values as rough.
Columns and labels:
[1] = compound: ClCC(=O)N[C@@H]1CCCc2ccccc12; assay: log2 mean competition ratio of IA-DTB cysteine labelling (DMSO/compound) (log2 ratio); higher = stronger cysteine engagement by compound; conditions: treatment time: 4 h, cell line lysate: HEK293T
Method: (§1)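 IA-DTB competitive cysteine chemoproteomics in HEK293T RIPA lysate. Lysates were treated with compound 29 or 30 at 50 or 200 µM for 4 h, then IA-DTB (500 µM, 1 h), trypsin-digested, NeutrAvidin-enriched and analysed by diaPASEF. Competition ratio = intensity DMSO / intensity compound (n=4 treated, n=64 DMSO); binding: mean log2 CR ≥ 1 and p ≤ 0.05 plus QC filters. Target is the cysteine site.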

Sequences of proteins named here, by UniProt entry; tags and fusion partners are left off. A change or cut given only in a name is not applied to a line headed by its entry. Residues count along the entry.
UniProt Q8N3F8: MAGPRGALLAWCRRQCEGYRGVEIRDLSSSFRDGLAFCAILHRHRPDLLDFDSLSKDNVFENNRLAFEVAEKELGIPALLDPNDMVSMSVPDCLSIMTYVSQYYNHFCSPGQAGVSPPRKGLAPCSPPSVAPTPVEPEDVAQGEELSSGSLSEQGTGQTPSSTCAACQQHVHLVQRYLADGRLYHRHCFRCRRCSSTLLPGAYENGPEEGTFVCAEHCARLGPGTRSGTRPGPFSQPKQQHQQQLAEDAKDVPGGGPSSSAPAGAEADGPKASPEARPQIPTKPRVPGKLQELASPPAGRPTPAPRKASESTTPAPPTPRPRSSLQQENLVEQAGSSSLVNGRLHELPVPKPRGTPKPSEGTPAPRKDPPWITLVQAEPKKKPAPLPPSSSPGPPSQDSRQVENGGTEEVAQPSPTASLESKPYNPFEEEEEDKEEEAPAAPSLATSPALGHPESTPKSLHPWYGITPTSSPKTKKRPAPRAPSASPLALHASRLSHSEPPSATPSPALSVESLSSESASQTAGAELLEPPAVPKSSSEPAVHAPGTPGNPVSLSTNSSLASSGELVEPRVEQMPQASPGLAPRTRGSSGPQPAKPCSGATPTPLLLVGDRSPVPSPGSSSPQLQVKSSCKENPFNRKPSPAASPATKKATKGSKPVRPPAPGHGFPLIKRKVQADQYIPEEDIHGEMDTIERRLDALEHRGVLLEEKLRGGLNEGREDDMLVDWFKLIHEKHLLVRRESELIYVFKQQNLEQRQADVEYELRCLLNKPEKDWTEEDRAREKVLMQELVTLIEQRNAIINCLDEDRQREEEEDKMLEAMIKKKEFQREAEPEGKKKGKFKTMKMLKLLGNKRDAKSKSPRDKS
UniProt Q14676: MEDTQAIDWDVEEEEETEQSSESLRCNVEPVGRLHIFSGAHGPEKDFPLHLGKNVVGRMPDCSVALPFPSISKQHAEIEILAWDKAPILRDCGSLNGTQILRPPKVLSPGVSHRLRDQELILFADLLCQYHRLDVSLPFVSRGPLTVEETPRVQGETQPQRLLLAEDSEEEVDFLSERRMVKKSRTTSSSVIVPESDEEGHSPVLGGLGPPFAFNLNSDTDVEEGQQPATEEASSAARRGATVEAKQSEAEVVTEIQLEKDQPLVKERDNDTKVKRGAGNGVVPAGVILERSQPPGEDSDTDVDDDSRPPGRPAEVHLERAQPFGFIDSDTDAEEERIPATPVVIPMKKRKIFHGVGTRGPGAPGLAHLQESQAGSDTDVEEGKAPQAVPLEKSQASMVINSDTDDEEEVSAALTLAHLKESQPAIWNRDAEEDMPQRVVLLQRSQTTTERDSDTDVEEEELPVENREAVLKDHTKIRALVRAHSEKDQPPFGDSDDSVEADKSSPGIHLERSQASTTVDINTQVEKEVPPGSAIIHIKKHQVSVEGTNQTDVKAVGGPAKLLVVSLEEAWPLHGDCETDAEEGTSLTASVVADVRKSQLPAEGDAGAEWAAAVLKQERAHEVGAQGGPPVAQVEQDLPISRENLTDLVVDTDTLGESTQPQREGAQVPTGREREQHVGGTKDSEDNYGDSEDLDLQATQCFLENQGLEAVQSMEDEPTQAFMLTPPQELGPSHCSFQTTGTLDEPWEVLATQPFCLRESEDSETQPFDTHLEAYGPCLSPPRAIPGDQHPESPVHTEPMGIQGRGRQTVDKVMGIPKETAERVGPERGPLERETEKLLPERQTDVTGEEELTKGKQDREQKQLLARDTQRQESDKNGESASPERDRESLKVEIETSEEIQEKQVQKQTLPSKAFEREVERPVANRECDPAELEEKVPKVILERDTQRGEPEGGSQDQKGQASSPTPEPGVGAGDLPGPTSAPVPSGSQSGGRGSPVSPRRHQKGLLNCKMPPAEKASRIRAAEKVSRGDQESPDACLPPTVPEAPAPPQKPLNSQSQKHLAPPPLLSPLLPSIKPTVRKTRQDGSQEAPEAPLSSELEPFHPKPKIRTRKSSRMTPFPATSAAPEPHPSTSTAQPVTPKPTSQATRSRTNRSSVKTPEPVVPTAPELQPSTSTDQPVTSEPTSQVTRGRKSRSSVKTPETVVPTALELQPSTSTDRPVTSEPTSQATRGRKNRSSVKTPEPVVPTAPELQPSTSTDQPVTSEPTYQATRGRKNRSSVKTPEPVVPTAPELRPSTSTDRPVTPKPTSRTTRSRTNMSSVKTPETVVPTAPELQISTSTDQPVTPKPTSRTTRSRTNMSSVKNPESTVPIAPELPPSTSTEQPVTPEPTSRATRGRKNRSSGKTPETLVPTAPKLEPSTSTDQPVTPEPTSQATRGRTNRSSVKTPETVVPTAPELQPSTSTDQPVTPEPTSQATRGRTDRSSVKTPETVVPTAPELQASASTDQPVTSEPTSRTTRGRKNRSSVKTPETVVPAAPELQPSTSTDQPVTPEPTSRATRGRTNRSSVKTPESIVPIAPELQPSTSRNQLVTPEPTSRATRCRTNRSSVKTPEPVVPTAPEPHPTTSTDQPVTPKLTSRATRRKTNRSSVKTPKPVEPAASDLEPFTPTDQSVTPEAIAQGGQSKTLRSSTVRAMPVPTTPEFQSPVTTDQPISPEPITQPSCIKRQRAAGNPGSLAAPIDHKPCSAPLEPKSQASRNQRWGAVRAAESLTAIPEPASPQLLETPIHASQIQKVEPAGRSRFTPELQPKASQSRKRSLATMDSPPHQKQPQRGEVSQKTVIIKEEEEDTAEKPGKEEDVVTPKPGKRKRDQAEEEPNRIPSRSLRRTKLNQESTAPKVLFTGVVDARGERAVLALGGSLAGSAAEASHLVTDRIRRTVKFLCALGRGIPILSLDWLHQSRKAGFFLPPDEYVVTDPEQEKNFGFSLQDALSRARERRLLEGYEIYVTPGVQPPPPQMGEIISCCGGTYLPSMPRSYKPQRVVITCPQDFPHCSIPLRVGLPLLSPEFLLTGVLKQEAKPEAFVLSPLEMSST
UniProt P21741: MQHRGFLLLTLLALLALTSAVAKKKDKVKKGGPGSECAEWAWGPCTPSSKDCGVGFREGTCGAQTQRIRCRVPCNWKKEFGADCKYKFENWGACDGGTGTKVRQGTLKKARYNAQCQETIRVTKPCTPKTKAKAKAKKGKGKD
UniProt Q86U44, whole entry, looked up: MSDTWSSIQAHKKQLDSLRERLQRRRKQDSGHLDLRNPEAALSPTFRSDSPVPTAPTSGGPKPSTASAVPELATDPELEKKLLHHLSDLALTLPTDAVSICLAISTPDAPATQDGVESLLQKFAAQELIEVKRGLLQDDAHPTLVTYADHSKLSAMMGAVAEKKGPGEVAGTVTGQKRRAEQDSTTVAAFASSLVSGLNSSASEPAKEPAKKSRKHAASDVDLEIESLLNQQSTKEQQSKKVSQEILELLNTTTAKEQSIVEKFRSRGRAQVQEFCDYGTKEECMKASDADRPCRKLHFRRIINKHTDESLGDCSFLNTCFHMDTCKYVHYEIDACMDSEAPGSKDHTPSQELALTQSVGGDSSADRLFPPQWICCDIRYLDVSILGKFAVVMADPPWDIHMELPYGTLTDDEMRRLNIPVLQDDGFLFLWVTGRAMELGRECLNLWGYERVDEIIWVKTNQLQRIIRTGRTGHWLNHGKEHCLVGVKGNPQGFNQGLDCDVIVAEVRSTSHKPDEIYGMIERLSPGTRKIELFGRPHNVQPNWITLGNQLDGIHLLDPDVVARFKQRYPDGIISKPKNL
UniProt O95140: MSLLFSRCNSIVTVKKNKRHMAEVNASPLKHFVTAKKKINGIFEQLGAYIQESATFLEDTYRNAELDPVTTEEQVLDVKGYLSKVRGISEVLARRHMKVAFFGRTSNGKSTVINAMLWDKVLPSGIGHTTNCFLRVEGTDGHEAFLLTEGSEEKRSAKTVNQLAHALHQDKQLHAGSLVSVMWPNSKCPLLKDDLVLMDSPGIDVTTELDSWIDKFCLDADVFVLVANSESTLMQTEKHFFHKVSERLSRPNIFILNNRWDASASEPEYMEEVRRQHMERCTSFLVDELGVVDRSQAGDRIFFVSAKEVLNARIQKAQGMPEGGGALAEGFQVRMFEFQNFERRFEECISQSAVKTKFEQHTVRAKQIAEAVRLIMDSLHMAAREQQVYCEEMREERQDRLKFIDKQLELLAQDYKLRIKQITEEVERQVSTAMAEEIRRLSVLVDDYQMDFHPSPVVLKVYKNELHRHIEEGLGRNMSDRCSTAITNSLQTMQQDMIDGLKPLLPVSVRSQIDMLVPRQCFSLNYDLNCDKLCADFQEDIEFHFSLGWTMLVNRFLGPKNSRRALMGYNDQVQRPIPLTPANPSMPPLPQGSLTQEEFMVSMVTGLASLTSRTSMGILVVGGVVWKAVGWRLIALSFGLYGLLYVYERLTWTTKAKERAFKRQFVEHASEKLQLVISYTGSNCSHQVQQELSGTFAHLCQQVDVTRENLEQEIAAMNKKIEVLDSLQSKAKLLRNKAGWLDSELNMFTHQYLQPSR
UniProt Q9NU22, 267-289: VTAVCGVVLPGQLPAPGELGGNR
UniProt Q86YT6, whole entry, looked up: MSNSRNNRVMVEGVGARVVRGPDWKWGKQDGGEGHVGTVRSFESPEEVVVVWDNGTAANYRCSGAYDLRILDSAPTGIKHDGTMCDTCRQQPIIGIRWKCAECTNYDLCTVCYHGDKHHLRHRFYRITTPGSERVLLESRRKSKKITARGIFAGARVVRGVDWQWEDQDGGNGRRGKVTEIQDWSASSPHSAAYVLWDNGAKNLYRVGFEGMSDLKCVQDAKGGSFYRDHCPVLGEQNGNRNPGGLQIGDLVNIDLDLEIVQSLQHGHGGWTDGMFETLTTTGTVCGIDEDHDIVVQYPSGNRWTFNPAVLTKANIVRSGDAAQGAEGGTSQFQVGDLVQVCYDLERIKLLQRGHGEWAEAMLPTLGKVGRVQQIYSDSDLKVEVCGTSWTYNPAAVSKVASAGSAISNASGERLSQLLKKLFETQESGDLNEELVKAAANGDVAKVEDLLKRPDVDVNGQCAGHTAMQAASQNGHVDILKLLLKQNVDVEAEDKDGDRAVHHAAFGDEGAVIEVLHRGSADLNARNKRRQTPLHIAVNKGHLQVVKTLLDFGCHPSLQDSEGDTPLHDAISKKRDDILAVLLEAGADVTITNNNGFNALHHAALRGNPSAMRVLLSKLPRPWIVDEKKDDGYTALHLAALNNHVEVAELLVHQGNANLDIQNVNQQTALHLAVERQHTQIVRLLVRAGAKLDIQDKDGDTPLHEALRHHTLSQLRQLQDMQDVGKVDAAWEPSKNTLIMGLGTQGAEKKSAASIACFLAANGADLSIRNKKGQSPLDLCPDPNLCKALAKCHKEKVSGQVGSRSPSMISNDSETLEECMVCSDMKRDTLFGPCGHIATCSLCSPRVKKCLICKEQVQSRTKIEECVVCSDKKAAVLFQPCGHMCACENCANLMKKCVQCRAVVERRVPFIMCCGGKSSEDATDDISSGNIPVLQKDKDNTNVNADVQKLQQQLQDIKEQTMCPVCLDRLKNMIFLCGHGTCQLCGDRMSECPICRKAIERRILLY
UniProt Q9H8H3: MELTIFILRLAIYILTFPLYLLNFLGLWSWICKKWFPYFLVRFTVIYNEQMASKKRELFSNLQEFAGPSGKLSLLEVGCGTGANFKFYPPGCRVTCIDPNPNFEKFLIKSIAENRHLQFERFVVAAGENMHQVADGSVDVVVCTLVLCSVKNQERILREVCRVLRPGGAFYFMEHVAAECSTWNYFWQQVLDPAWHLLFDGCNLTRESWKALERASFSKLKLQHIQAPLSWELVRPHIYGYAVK
UniProt Q00013: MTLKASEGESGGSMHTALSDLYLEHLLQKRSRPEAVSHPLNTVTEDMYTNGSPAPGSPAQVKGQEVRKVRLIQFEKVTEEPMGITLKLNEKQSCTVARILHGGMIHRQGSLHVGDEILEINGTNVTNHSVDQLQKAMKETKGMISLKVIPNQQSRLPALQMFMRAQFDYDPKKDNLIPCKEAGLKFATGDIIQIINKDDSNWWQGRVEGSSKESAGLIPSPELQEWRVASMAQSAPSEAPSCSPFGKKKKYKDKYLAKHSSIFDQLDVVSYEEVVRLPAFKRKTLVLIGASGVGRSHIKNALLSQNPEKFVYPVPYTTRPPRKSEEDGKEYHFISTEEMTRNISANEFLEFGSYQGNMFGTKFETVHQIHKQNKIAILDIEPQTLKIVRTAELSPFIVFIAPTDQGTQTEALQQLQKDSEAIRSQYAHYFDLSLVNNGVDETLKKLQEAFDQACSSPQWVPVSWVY
UniProt Q9Y4U1: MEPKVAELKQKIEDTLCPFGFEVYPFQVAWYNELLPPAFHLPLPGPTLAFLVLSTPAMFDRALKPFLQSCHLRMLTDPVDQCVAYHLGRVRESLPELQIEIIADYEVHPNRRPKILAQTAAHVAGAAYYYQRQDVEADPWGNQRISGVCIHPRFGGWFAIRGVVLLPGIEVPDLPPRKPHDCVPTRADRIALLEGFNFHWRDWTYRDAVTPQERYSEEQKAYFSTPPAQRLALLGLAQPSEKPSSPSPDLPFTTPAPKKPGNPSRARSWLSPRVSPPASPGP

[2] = compound: ClCC(=O)N[C@H]1CCCc2ccccc12; assay: as above; conditions: treatment time: 4 h, cell line lysate: HEK293T
Method: as §1

MICALL1 C801 (UniProt Q8N3F8)
log2 mean competition ratio ([1]; 50 µM): -0.212 | log2 mean competition ratio ([1]; 200 µM): -0.0848 | log2 mean competition ratio ([2]; 50 µM): -0.308 | log2 mean competition ratio ([2]; 200 µM): -0.0317

MDC1 C92 (UniProt Q14676)
log2 mean competition ratio ([1]; 50 µM): -0.316 | log2 mean competition ratio ([1]; 200 µM): -0.153 | log2 mean competition ratio ([2]; 50 µM): -0.699 | log2 mean competition ratio ([2]; 200 µM): 0.115

MDK C116 (UniProt P21741)
log2 mean competition ratio ([1]; 50 µM): 0.26 | log2 mean competition ratio ([1]; 200 µM): 0.138 | log2 mean competition ratio ([2]; 50 µM): 0.213 | log2 mean competition ratio ([2]; 200 µM): 0.354

METTL3 C294 (UniProt Q86U44)
log2 mean competition ratio ([1]; 50 µM): -0.277 | log2 mean competition ratio ([1]; 200 µM): 0.167 | log2 mean competition ratio ([2]; 50 µM): -0.226 | log2 mean competition ratio ([2]; 200 µM): 0.25

MRC2 C983 (UniProt Q9UBG0)
log2 mean competition ratio ([1]; 50 µM): -0.21 | log2 mean competition ratio ([1]; 200 µM): 0.117 | log2 mean competition ratio ([2]; 50 µM): 0.145 | log2 mean competition ratio ([2]; 200 µM): 0.227

MFN2 C390 (UniProt O95140)
log2 mean competition ratio ([1]; 50 µM): -0.277 | log2 mean competition ratio ([1]; 200 µM): 0.418 | log2 mean competition ratio ([2]; 50 µM): -0.165 | log2 mean competition ratio ([2]; 200 µM): 0.392

MFN2 C348 (UniProt O95140)
log2 mean competition ratio ([1]; 50 µM): 0.0894 | log2 mean competition ratio ([1]; 200 µM): 0.237 | log2 mean competition ratio ([2]; 50 µM): 0.148 | log2 mean competition ratio ([2]; 200 µM): 0.0851

MDN1 C271 (UniProt Q9NU22)
log2 mean competition ratio ([1]; 50 µM): 0.122 | log2 mean competition ratio ([1]; 200 µM): 0.252 | log2 mean competition ratio ([2]; 50 µM): 0.0935 | log2 mean competition ratio ([2]; 200 µM): 0.0798

MRC2 C1234 (UniProt Q9UBG0)
log2 mean competition ratio ([1]; 50 µM): -0.147 | log2 mean competition ratio ([1]; 200 µM): 0.415 | log2 mean competition ratio ([2]; 50 µM): 0.0898 | log2 mean competition ratio ([2]; 200 µM): 0.527

MIB1 C342 (UniProt Q86YT6)
log2 mean competition ratio ([1]; 50 µM): 0.147 | log2 mean competition ratio ([1]; 200 µM): 0.649 | log2 mean competition ratio ([2]; 50 µM): 0.25 | log2 mean competition ratio ([2]; 200 µM): 0.0408

METTL7A C92 (UniProt Q9H8H3)
log2 mean competition ratio ([1]; 50 µM): 0.104 | log2 mean competition ratio ([1]; 200 µM): -0.124 | log2 mean competition ratio ([2]; 50 µM): 0.112 | log2 mean competition ratio ([2]; 200 µM): 0.0156

MPP1 C94 (UniProt Q00013)
log2 mean competition ratio ([1]; 50 µM): -0.313 | log2 mean competition ratio ([1]; 200 µM): 0.2 | log2 mean competition ratio ([2]; 50 µM): -0.186 | log2 mean competition ratio ([2]; 200 µM): 0.0868

MORC3 C307 (UniProt Q14149)
log2 mean competition ratio ([1]; 50 µM): 0.166 | log2 mean competition ratio ([1]; 200 µM): 0.0609 | log2 mean competition ratio ([2]; 50 µM): 0.0935 | log2 mean competition ratio ([2]; 200 µM): 0.0273

MMACHC C182 (UniProt Q9Y4U1)
log2 mean competition ratio ([1]; 50 µM): 0.111 | log2 mean competition ratio ([1]; 200 µM): -0.338 | log2 mean competition ratio ([2]; 50 µM): 0.0216 | log2 mean competition ratio ([2]; 200 µM): -0.137

MICAL1 C837 (UniProt Q8TDZ2)
log2 mean competition ratio ([1]; 50 µM): -0.0392 | log2 mean competition ratio ([1]; 200 µM): 0.0924 | log2 mean competition ratio ([2]; 50 µM): 0.0169 | log2 mean competition ratio ([2]; 200 µM): 0.161

MORC3 C15 (UniProt Q14149)
log2 mean competition ratio ([1]; 50 µM): -0.11 | log2 mean competition ratio ([1]; 200 µM): 0.133 | log2 mean competition ratio ([2]; 50 µM): -0.0297 | log2 mean competition ratio ([2]; 200 µM): 0.159

Source: the supplement of paper PMC11732987, “Enantioselective OTUD7B fragment discovery through chemoproteomics screening and high-throughput optimisation” (Communications Chemistry, 2025)
